Results deposited as PubChem BioAssay AID652243 (Drosophila RNAi Screening Center, 2013)
In all, the deposit lists about 24,000 reagents; this is a random part of those that have a named target and a result. In the full data, 246 (1%) were called active. 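Plates not normalised; calls are printed but the firefly/Renilla ratio behind them is not deposited; fold cut for lowering reported inconsistently.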 The raw values are shown without normalisation. Names joined by + are all predicted targets of the reagent. Not stated in the record: the amount of reagent.

Test: 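Fly genes required for human androgen receptor driven transcription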 (primary screen)
System: Drosophila S2R+ cells
Reagent: long dsRNA against Drosophila genes
Timing: 72 h (48 h, then 24 h hormone)
Treatment: synthetic androgen R1881 at 10 nM for 24 h
Measured: 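Firefly light from an androgen-responsive reporter and Renilla control light per well, raw and unnormalised, for each of two replicates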
Scale: firefly reporter light: higher = more light from androgen-responsive reporter; Renilla control light: higher = more constitutive control signal (cell number, transfection)
Rule for the call: 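Hit when the log firefly-to-Renilla ratio dropped or increased by a fixed fold versus the mean of GFP or LacZ controls across duplicate plates; lowering cut given as 1.5 and as 3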
Meaning of the calls: active = hit: reporter lowered or raised; inactive = no hit

| gene | dsRNA | firefly reporter light, replicate 1 | firefly reporter light, replicate 2 | Renilla control light, replicate 1 | Renilla control light, replicate 2 | call |
| --- | --- | --- | --- | --- | --- | --- |
| Pgk | DRSC00769 | – | – | – | – | inactive |
| Pgk | DRSC23340 | 7.22e5 | 6.16e5 | 4.16e5 | 3.37e5 | inactive |
| Pgk | DRSC26595 | 5.86e5 | 4.02e5 | 6.85e5 | 6.55e5 | inactive |
| CR11023 | DRSC00302 | 99060 | 69310 | 5.44e5 | 5.79e5 | inactive |
| CR11023 | DRSC28266 | 3.65e5 | 8.13e5 | 1.17e6 | 2.10e6 | inactive |
| CG18223 | DRSC10306 | 2.63e5 | 1.98e5 | 2.91e6 | 2.74e6 | inactive |
| CG7806 | DRSC03071 | 1.32e6 | 1.24e6 | 2.02e6 | 1.83e6 | inactive |
| Fpgs2 | DRSC00600 | 97907 | 82504 | 5.88e5 | 9.02e5 | inactive |
| CNBP | DRSC04116 | 2.73e5 | 2.73e5 | 1.86e6 | 1.40e6 | inactive |
| CNBP | DRSC21317 | 3.23e5 | 3.37e5 | 1.40e6 | 1.42e6 | inactive |
| CNBP | DRSC29556 | 3.80e5 | 5.86e5 | 6.93e5 | 6.93e5 | inactive |
| CG6908 | DRSC16131 | 1.39e5 | 1.62e5 | 2.78e6 | 3.27e6 | inactive |
| CG6908 | DRSC25403 | 1.09e6 | 1.10e6 | 9.61e5 | 7.78e5 | inactive |
| Gfat2 | DRSC14598 | 56126 | 60058 | 6.12e5 | 5.32e5 | inactive |
| Gfat2 | DRSC26948 | 4.55e5 | 2.78e5 | 9.00e5 | 5.95e5 | inactive |
| Spt7 | DRSC19997 | 91553 | 66186 | 7.06e5 | 6.79e5 | inactive |
| Spt7 | DRSC24902 | 1.16e6 | 1.12e6 | 9.81e5 | 9.55e5 | inactive |
| CG3270 | DRSC04988 | 6.70e5 | 7.02e5 | 1.25e6 | 1.36e6 | inactive |
| CG12057 | DRSC17797 | 4.50e5 | 5.21e5 | 3.55e6 | 3.69e6 | inactive |
| sax | DRSC07675 | 1.24e6 | 4.83e5 | 1.71e6 | 1.15e6 | inactive |
| sax | DRSC26844 | 4.03e5 | 3.88e5 | 7.66e5 | 7.13e5 | inactive |
| sax | DRSC37004 | – | – | – | – | inactive |
| CG10801 | DRSC17761 | 1.55e5 | 1.97e5 | 2.22e6 | 2.56e6 | inactive |
| CG12522 | DRSC09088 | 33395 | 88236 | 1.24e5 | 1.38e5 | inactive |
| CG12522 | DRSC25372 | 4.49e5 | 6.10e5 | 9.46e5 | 8.27e5 | inactive |
| CG9643 | DRSC00722 | 81462 | 66132 | 1.14e6 | 7.58e5 | inactive |
| CG9643 | DRSC27948 | 7.68e5 | 3.74e5 | 2.87e6 | 1.34e6 | inactive |
| Ssl2 | DRSC14395 | 2.77e5 | 2.42e5 | 2.02e6 | 3.76e6 | inactive |
| Ssl2 | DRSC22796 | 7.02e5 | 1.07e6 | 6.88e5 | 1.07e6 | inactive |
| wbl | DRSC07718 | 82571 | 67016 | 1.01e6 | 1.22e6 | inactive |
| wbl | DRSC26561 | 3.25e5 | 2.75e5 | 2.86e5 | 2.75e5 | inactive |
| CG32181 | DRSC22635 | 5.31e5 | 5.49e5 | 1.87e6 | 1.81e6 | inactive |
| CG32181 | DRSC26268 | 3.27e5 | 3.09e5 | 6.64e5 | 5.97e5 | inactive |
| CG33703 | DRSC37834 | 5.33e5 | 5.56e5 | 1.46e6 | 1.47e6 | inactive |
| Pstk + CG14210 + Tim9b | DRSC19566 | 1.62e5 | 1.40e5 | 6.01e5 | 5.21e5 | inactive |
| Pstk + CG14210 + Tim9b | DRSC29021 | 3.93e5 | 4.41e5 | 9.64e5 | 8.68e5 | inactive |
| Prp5 | DRSC19975 | 6.60e5 | 5.71e5 | 3.67e6 | 3.48e6 | inactive |
| Prp5 | DRSC27434 | 3.14e5 | 3.44e5 | 6.97e5 | 7.20e5 | inactive |
| Hsp70Bc | DRSC16053 | 1.60e5 | 1.07e5 | 1.48e6 | 1.15e6 | inactive |
| CG15043 | DRSC19619 | 3.55e5 | 4.69e5 | 2.35e6 | 2.50e6 | inactive |
| CG15043 | DRSC29563 | 4.86e5 | 4.27e5 | 8.16e5 | 8.16e5 | inactive |
| CG9497 | DRSC03234 | 6.78e5 | 6.79e5 | 1.82e6 | 2.37e6 | inactive |
| CG9497 | DRSC25510 | 7.79e5 | 9.17e5 | 1.06e6 | 1.05e6 | inactive |
| Manf | DRSC14091 | 1.01e5 | 89122 | 9.93e5 | 7.55e5 | inactive |
| 14-3-3zeta | DRSC05028 | 1.02e6 | 8.09e5 | 1.89e6 | 1.69e6 | inactive |
| 14-3-3zeta | DRSC27525 | 2.99e5 | 2.53e5 | 3.91e5 | 7.69e5 | inactive |
| 14-3-3zeta | DRSC37012 | – | – | – | – | inactive |
| CG32102 | DRSC22015 | 9.56e5 | 7.42e5 | 1.97e6 | 1.33e6 | inactive |
| Br140 | DRSC06755 | 5.37e5 | 5.25e5 | 9.18e5 | 9.83e5 | inactive |
| mthl15 | DRSC01120 | 1.98e5 | 2.17e5 | 4.62e5 | 4.77e5 | inactive |
| Gr93b | DRSC22063 | 7.18e5 | 5.80e5 | 1.04e6 | 9.80e5 | inactive |
| Csl4 | DRSC02944 | 3.50e5 | 3.26e5 | 2.95e6 | 3.14e6 | inactive |
| Csl4 | DRSC22664 | 8.18e5 | 8.18e5 | 1.68e6 | 1.40e6 | inactive |
| CG12268 | DRSC14491 | 1.13e5 | 1.61e5 | 1.55e6 | 1.59e6 | inactive |
| CG12268 | DRSC28755 | 9.19e5 | 7.55e5 | 1.25e6 | 1.49e6 | inactive |
| Fbw5 | DRSC03146 | 1.97e5 | 1.86e5 | 2.42e6 | 1.76e6 | inactive |
| Fbw5 | DRSC29431 | 7.30e5 | 9.12e5 | 8.58e5 | 8.58e5 | inactive |
| Mps1 | DRSC16273 | 74157 | 82235 | 5.21e5 | 8.86e5 | inactive |
| Mps1 | DRSC36934 | – | – | – | – | inactive |
| Mps1 | DRSC36935 | – | – | – | – | inactive |

Copied from the list:
Value for CNBP [DRSC04116] under “firefly reporter light, replicate 1”: 2.73e5
Pstk + CG14210 + Tim9b [DRSC19566], firefly reporter light, replicate 2: 1.40e5
Entry for CG15043 [DRSC19619] under “firefly reporter light, replicate 1”: 3.55e5
Value for Pstk + CG14210 + Tim9b [DRSC29021] in “Renilla control light, replicate 1”: 9.64e5
For “firefly reporter light, replicate 1”, CG12268 [DRSC28755] shows 9.19e5
For “call”, Prp5 [DRSC27434] has inactive
